From article PMC10335695 come the findings set out here.

Protein sequences, listed by entry. Tags and fused reporters are not part of them.
UniProt P17542: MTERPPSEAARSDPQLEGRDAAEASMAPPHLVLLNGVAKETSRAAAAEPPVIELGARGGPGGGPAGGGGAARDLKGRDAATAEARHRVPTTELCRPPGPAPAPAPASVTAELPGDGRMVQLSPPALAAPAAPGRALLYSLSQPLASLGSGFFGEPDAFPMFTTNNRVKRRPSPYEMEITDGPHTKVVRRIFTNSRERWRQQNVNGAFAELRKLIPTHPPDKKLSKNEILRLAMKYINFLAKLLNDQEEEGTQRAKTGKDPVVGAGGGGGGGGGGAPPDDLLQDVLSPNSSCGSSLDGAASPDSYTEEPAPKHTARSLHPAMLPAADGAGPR
UniProt Q99081: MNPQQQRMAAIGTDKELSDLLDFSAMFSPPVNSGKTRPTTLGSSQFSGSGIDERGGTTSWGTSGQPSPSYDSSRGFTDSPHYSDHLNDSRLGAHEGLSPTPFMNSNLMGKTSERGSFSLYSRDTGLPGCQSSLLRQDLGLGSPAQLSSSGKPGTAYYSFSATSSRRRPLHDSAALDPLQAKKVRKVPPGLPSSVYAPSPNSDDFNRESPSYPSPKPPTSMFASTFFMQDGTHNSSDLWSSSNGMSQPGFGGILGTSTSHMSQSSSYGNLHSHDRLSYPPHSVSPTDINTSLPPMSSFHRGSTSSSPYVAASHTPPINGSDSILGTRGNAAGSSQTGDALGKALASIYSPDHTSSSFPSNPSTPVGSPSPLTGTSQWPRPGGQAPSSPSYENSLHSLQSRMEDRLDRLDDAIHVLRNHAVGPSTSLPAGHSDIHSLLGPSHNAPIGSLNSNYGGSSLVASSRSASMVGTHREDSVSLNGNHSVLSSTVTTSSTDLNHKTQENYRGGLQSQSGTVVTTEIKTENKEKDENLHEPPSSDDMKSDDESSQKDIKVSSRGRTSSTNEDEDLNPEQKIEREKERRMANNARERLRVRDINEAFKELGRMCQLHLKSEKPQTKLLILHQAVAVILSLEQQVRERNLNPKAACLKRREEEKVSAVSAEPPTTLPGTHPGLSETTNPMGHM

Results are given in words; binding and its absence hold for the method and conditions named. Binding seen in cells or lysates may run through a third protein. Some binding calls cover weakened binding; strength is not graded here.

Experiment [1] deals with GFP-TAL1-long (human) (UniProt P17542). The experiment can be described thus: co-IP; Jurkat cells infected with GFP-TAL1-short or GFP-TAL1-long; GFP immunoprecipitated; interacting proteins detected by blot.
Experiment [2] deals with FLAG-TAL1-long (human) (UniProt P17542). The experiment can be described thus: co-IP; Jurkat cells expressing FLAG-TAL1-short or FLAG-TAL1-long; lysis in 0.5% NP40, 150 mM NaCl, 50 mM Tris pH 7.5, 2 mM MgCl2; anti-FLAG M2 magnetic beads 2 h at 4°C, 4 washes; blot for endogenous TCF3 and TCF12.

Take TCF12 (from UniProt Q99081 1-682): the binding result in experiment [1] and in experiment [2] was “binds” each time.
